Results deposited as PubChem BioAssay AID504791 (Drosophila RNAi Screening Center, 2011).
Screen: 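Genes of the fly required for silencing by miRNA, siRNA or endo-siRNA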 (primary screen). Cell system: Drosophila S2-derived reporter cells. Reagent: long dsRNA against Drosophila genes, about 150-250 ng dsRNA per well (siRNA assay); about 80-120 ng (miRNA assay). Duration: about 5 days (siRNA assay); about 4 days (miRNA assay). Treatment: copper sulfate induction of reporters: 25 µM (siRNA assay); 200 mM stated (miRNA assay), 1-2 days before reading. Measurement: 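Dual luciferase assay: Renilla to firefly signal ratio in each well, scaled to the mean ratio of its plate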. Hit rule: 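First-pass picks had plate-scaled ratios over 1.5 for the siRNA assay, over 1.6 for the miRNA assay, or under 0.6; two distinct dsRNAs had to score alike on retest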.
The deposit covers about 23,000 reagents; shown is an unselected part of those that have a named target and a result. Over the whole deposit, 199 (0.86%) are marked active. 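Plate-scaled ratios behind the calls are not deposited; printed light signals are raw; many rows marked increased or decreased are still called inactive.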 A plus sign joins genes that one reagent is predicted to hit. Not stated in the record: the direction of the score.

The first 4 records, to show the layout:
gene,DRSC id,miRNA reporter change,"stable assay Renilla, run 1 (luminescence)","stable assay firefly, run 1 (luminescence)",activity call
CG14635,DRSC17945,,6255,5.18e5,inactive
CG6836,DRSC10722,,10156,4.31e5,inactive
Parp16,DRSC06597,,5928,2.79e5,inactive
CG42699,DRSC18076,,7035,4.05e5,inactive

Main list, repeating the preview:
gene,DRSC id,miRNA reporter change,"stable assay Renilla, run 1 (luminescence)","stable assay firefly, run 1 (luminescence)",activity call
CG14635,DRSC17945,,6255,5.18e5,inactive
CG6836,DRSC10722,,10156,4.31e5,inactive
Parp16,DRSC06597,,5928,2.79e5,inactive
CG42699,DRSC18076,,7035,4.05e5,inactive
CG42699,DRSC18341,,5835,2.51e5,inactive
CG33331 + CG33332,DRSC22928,,4344,3.59e5,inactive
CG33331 + CG33332,DRSC29492,reporter ratio lowered past the hit cutoff,,,inactive
Mau2,DRSC15550,,7715,3.73e5,inactive
ddbt,DRSC07869,,4396,3.91e5,inactive
Ugt35D1,DRSC15107,,6530,5.15e5,inactive
CG9717,DRSC16543,,6304,3.31e5,inactive
CG13713,DRSC08322,,7376,5.47e5,inactive
CG31687 + Cdc23,DRSC23052,,7155,4.20e5,inactive
CG31274 + MESK4,DRSC13202,,4091,3.33e5,inactive
Diedel3,DRSC19544,,6899,3.64e5,inactive
Alg-2,DRSC07799,,6395,3.58e5,inactive
CG4456 + Hsp22,DRSC11187,,6634,4.22e5,inactive
CG4456 + Hsp22,DRSC11192,,7497,3.88e5,inactive
tadr,DRSC03177,,29017,1.18e6,inactive
CG31019,DRSC13994,,8968,4.86e5,inactive
CG6041,DRSC18396,,6471,2.52e5,inactive
nht,DRSC01976,,5031,3.93e5,inactive
CG33469,DRSC22900,,3924,3.12e5,inactive
inaC,DRSC07632,,8818,2.37e5,inactive
Cap-D2,DRSC15401,,9359,5.35e5,inactive
Him,DRSC19638,,6164,4.27e5,inactive
CG13088,DRSC02192,,8405,4.10e5,inactive
Mtap,DRSC06890,,12996,5.78e5,inactive
ng4,DRSC18805,,6216,3.01e5,inactive
Marcal1,DRSC02718,,7079,3.16e5,inactive
Gyc88E,DRSC15547,,6188,3.72e5,inactive
CG13946,DRSC00364,,7886,6.15e5,inactive
CG17896,DRSC18502,,5572,4.73e5,inactive
CG1907,DRSC15399,,7067,3.68e5,inactive
